Test results taken from publication doi:10.1101/2024.11.01.621520.
These are yes or no findings as the source states them, for the method shown. In cells and extracts the contact can be indirect. Some results given as binding are weak or reduced against the parent protein; the word gives no strength.

Sequences of proteins named here, by UniProt entry; tags and fusion partners are left off. Residues count along the entry.
UniProt P10275: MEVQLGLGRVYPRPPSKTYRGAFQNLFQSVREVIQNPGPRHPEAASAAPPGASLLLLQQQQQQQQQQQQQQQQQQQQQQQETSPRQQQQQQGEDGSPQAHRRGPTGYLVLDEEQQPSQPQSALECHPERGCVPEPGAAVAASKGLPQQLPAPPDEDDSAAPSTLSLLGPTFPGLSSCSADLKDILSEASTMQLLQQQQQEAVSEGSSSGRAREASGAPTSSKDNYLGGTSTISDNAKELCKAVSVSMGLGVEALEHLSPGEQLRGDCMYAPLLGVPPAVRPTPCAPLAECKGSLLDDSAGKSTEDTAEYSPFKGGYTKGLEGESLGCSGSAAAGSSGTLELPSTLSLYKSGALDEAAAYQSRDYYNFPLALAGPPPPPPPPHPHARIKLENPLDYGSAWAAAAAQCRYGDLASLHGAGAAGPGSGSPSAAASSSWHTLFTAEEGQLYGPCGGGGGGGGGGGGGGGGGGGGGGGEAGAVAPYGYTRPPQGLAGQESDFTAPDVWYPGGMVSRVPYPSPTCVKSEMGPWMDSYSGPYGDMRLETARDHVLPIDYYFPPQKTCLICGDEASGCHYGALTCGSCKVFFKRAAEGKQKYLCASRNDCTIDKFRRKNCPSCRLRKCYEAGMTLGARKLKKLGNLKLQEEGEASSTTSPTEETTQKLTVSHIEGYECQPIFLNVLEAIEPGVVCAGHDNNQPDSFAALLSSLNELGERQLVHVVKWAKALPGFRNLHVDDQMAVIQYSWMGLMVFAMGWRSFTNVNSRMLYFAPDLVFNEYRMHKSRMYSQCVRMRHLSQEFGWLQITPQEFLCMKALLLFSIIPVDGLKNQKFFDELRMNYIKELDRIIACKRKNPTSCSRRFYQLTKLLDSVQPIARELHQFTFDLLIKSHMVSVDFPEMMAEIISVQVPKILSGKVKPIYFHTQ
UniProt Q13283: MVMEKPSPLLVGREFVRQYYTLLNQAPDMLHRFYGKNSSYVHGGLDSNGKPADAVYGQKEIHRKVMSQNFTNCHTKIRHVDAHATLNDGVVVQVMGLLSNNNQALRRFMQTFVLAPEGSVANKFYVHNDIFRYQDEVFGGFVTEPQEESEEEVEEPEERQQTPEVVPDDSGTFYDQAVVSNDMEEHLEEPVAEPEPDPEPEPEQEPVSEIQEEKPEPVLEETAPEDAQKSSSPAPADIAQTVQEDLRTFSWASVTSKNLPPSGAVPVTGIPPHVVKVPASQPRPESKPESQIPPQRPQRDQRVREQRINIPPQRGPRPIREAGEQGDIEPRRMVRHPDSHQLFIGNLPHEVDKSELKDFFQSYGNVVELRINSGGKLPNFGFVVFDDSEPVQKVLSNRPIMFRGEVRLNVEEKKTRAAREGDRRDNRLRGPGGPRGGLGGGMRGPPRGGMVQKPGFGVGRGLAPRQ
UniProt P24593, residues 21-272: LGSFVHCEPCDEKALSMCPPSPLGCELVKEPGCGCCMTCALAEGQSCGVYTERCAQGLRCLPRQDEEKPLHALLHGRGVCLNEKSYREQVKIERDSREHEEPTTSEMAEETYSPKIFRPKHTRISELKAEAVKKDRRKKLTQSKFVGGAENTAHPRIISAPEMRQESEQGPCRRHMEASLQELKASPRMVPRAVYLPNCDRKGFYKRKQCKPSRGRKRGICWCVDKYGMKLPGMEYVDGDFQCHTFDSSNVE

Key:
[1] = target: androgen receptor (human (endogenous in MCF7Aro-LetR and MCF7)) (UniProt P10275); assay: co-IP
[2] = target: G3BP1 (human (endogenous in MCF7Aro-LetR and MCF7)) (UniProt Q13283); assay: co-IP

binding [1]	binding [2]	Substance
binds		Insulin-like growth factor-binding protein 5 (from UniProt P24593 21-272)
binds		G3BP1 (from UniProt Q13283 1-466)
	binds	androgen receptor (from UniProt P10275 1-920)
